The values that follow come from article PMC4279394.

Protein sequences, listed by entry. Tags and fused reporters are not part of them. Lines headed by an entry give the natural chain unless they say otherwise; changes in a name come on top.
UniProt P56693: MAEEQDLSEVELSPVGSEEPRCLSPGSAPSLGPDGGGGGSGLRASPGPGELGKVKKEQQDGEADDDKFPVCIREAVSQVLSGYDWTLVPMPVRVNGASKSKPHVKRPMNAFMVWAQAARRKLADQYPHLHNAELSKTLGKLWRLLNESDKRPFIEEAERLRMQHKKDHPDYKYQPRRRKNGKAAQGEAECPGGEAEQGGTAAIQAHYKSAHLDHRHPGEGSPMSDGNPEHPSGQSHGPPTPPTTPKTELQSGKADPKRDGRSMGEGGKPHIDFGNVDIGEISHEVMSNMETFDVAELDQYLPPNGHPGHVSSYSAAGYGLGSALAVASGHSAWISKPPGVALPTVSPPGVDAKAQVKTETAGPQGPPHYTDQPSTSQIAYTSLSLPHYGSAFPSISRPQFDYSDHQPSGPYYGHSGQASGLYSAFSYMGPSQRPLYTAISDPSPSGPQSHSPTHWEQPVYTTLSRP
UniProt P35222: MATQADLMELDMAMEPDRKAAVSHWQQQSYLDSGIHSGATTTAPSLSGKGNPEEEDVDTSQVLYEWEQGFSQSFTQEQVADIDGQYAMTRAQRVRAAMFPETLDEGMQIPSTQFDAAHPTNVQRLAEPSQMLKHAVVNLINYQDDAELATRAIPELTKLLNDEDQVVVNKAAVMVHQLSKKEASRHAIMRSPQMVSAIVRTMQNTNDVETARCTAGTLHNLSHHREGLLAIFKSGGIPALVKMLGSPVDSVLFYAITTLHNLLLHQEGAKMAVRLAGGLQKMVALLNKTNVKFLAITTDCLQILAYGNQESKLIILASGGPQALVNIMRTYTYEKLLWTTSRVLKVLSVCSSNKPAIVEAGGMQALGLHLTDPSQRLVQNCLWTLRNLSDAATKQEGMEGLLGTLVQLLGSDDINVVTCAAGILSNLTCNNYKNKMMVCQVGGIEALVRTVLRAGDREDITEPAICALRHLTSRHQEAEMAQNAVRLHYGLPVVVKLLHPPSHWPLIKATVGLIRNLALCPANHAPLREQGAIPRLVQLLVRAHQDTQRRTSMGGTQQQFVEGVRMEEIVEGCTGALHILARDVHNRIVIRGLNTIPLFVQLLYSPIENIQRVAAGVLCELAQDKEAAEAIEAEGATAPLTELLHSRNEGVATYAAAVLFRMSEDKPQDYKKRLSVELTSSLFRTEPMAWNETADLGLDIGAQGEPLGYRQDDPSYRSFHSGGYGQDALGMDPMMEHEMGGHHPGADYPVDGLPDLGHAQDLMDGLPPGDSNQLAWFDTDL

This assay addresses V5-tagged SOX10-482ins6 mutant (human) (UniProt P56693). The assay can be described thus: co-IP; whole-cell extracts of cells expressing V5-SOX10 or its mutants (3G, DB, 482ins6); endogenous β-catenin; cell line (HCT116 or 293T) and precipitating antibody not stated for this panel (Figure 6B).

Results are given in words; binding and its absence hold for the method and conditions named. In cells and extracts the contact can be indirect. A result given as binding can be weak or reduced; the word gives no strength.

As to “endogenous β-catenin (from UniProt P35222 1-781)”, the binding entry is “binds”.
